Results are given as percent effect.
The record does not define 0% and 100%; most values in the screen are far below 50% and negative numbers occur (in some assays of this library far below -100).
Compounds were drawn at random from those tested, without regard to their results.
Two or more numbers in one place are separate tests of the same structure; such repeats can differ widely.

Mtb cholesterol medium: 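Growth of Mycobacterium tuberculosis over 4 days (cholesterol / DPPC medium with tyloxapol); the read-out is not stated. Compounds at 50 µM. The record gives no direction; compounds that gave an IC50 in retests scored well above the rest, so higher reads as more growth inhibition. Of about 69,000 compounds tested this way, about 370 (0.54%) reached 50% or more in at least one test.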
Mtb glucose medium: 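Growth of Mycobacterium tuberculosis over 3 days (7H9 medium with glucose and tyloxapol); the read-out is not stated. Compounds at 50 µM. Higher reads as more growth inhibition (inferred: compounds with an IC50 in retests scored well above the rest). About 69,000 compounds were tested under these conditions; 1.1% (about 760) showed 50% or more at least once.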

For Cc1ccccc1-c1cncc(C2CCN(C(C)C)CC2)n1 the result was Mtb cholesterol medium: 8.893%; Mtb glucose medium: 20.51%. Result for C[C@H]1CN(Cc2cnn(C)c2)C[C@@]12CCN(Cc1cccnc1)C2=O was Mtb cholesterol medium: 6.407%; Mtb glucose medium: -19.55%. CC(C)[C@@H]1CN(Cc2c[nH]nc2-c2ccc(F)cc2)C[C@H]1NS(C)(=O)=O read Mtb cholesterol medium: -8.893%; Mtb glucose medium: 10.16%. With O=C(c1c(F)cc(Br)cc1F)N1CCc2cnccc21 the screen gave Mtb cholesterol medium: -3.314%; Mtb glucose medium: 7.992%.

CC(C)(C)C(=O)N1CCCN(c2ncnc3nc(N)ccc23)CC1 read Mtb cholesterol medium: -7.323%; Mtb glucose medium: 16.71% and 5.679%. For O=C(c1ccc(C2CCCN2)s1)N1CCC2(CCCO2)CC1 (stereo not drawn) the result was Mtb cholesterol medium: -8.586% and 1.792%; Mtb glucose medium: -13.32%. For CS(=O)(=O)CCC(=O)N1CCC(c2ccc(F)c(F)c2)CC1 the result was Mtb cholesterol medium: 32.2%; Mtb glucose medium: 32.06% and 36.19%. For CCn1c(C2CCN(C(=O)c3cc(CC(C)C)on3)CC2)nn(C)c1=O the result was Mtb cholesterol medium: -14.81%; Mtb glucose medium: -19.3%.

With O=C(c1cc[nH]n1)N1CCCC1c1cncc(CN2CCOCC2)n1 (stereo not drawn) the screen gave Mtb cholesterol medium: 15.82%; Mtb glucose medium: 11.35%. Result for CCc1noc(CN2CCN(c3nccs3)CC2)n1 was Mtb cholesterol medium: -28.81%; Mtb glucose medium: -39.99%. Result for Cn1ncc2ccc(C3CCCN(Cc4cccs4)C3)nc21 (stereo not drawn) was Mtb cholesterol medium: 0.5598% and 5.342%; Mtb glucose medium: 4.407%. CCOC(=O)Cn1c(=O)nc(N)c2c(-c3ccc(OC)cc3)csc21 read Mtb cholesterol medium: 24.22%; Mtb glucose medium: 25.18%.

With CNC(=O)C(C)NC(=O)c1ccc(Oc2cccnc2)cc1 (stereo not drawn) the screen gave Mtb cholesterol medium: -0.6285% and -15.64%; Mtb glucose medium: -25.29%. Result for CCS(=O)(=O)NCCCNC(=O)N(C)C(C)c1ccccn1 (stereo not drawn) was Mtb cholesterol medium: -46.59% and -0.4676%; Mtb glucose medium: 12.35%. For O=C(Cn1nc2ccccc2n1)N1CCCC(O)(CN2CCCC2)C1 (stereo not drawn) the result was Mtb cholesterol medium: -0.8783%; Mtb glucose medium: -16.81% and 4.071%. With COc1cc(N2CCC(c3nccn3Cc3ccccn3)CC2)ncn1 the screen gave Mtb cholesterol medium: 9.482%; Mtb glucose medium: 3.121%.

Result for Cc1nccn1C1CCCN(C(=O)c2ccc3c(c2)nnn3C)C1 (stereo not drawn) was Mtb cholesterol medium: -22.33%; Mtb glucose medium: -13.73%. Result for CC(O)CNC(=O)NCc1cccnc1OC1CCCC1 (stereo not drawn) was Mtb cholesterol medium: -14.86%; Mtb glucose medium: -16.05%. Cc1ccc([C@@H]2CN(C(=O)CCc3ccco3)C[C@H]2N(C)C)cc1 gave Mtb cholesterol medium: 0.6075%; Mtb glucose medium: 7.14%. Cc1cc(C)nc(N2CCN(C(=O)c3ccc(C4CCCO4)s3)CC2)n1 (stereo not drawn) gave Mtb cholesterol medium: -8.115%; Mtb glucose medium: 2.39% and -16.58%.

Result for O=C(O)C(F)(F)F.O=C(O)C(F)(F)F.c1c(CN2CCCC2)nc2n1CCN(C1CCOCC1)C2 was Mtb cholesterol medium: -12.44%; Mtb glucose medium: -6.485%. Result for N#Cc1ccccc1CNC(C(=O)N1CCOCC1)c1ccccc1 (stereo not drawn) was Mtb cholesterol medium: -7.924%; Mtb glucose medium: -4.683% and -17.77%. CCN(Cc1ccncc1)C1CCN(c2ccccc2)C1=O (stereo not drawn) gave Mtb cholesterol medium: -14.42%; Mtb glucose medium: -23.64%. For COc1cc(-c2cccc3c2OC(CN)C3)ccc1O (stereo not drawn) the result was Mtb cholesterol medium: 0.09767%; Mtb glucose medium: 17.29% and 18.1%.

COc1cccc(Cl)c1C(C(=O)O)N(C)Cc1nnc(C)o1 (stereo not drawn) read Mtb cholesterol medium: -5.958%; Mtb glucose medium: -13.7%. Result for COc1c(C2CCCN2C(=O)c2cccc(C(N)=O)c2)c(C)nn1C (stereo not drawn) was Mtb cholesterol medium: -6.117%; Mtb glucose medium: -18.09%. With CN(C)C(=O)Cc1nc(CN2CCOC(Cn3cccn3)C2)cs1 (stereo not drawn) the screen gave Mtb cholesterol medium: 9.836%; Mtb glucose medium: 1.432% and -4.669%. Result for CCc1ccc(O)c(C(=O)N2CCN(CC(=O)N(CC)CC)CC2)c1 was Mtb cholesterol medium: -0.1628%; Mtb glucose medium: 12.69%.

For Cc1cnn(CCC(=O)NS(=O)(=O)N2CCc3ccccc32)c1 the result was Mtb cholesterol medium: -3.961%; Mtb glucose medium: -13.26%. O=C(O)C(F)(F)F.O=C(O)C(F)(F)F.c1ccc(CN2CCC3(CC2)CN(c2ccccn2)CCO3)nc1 gave Mtb cholesterol medium: -6.239%; Mtb glucose medium: 1.774% and 1.201%. For COCCN1CCN(c2cccc(C)n2)Cc2ccc(C)nc21.O=C(O)C(F)(F)F.O=C(O)C(F)(F)F the result was Mtb cholesterol medium: -21.3%; Mtb glucose medium: 10.4%.

The first 3 entries again:

- Cc1ccccc1-c1cncc(C2CCN(C(C)C)CC2)n1 : Mtb cholesterol medium: 8.893%; Mtb glucose medium: 20.51%
- C[C@H]1CN(Cc2cnn(C)c2)C[C@@]12CCN(Cc1cccnc1)C2=O : Mtb cholesterol medium: 6.407%; Mtb glucose medium: -19.55%
- CC(C)[C@@H]1CN(Cc2c[nH]nc2-c2ccc(F)cc2)C[C@H]1NS(C)(=O)=O : Mtb cholesterol medium: -8.893%; Mtb glucose medium: 10.16%

Data taken from ChEMBL document CHEMBL3988442, “University of Dundee, Small-Polar-MMV Screening Library” (2021).